The other results are listed elsewhere or left out.
Tests used:
Assay in all cases: log2 fold change, soluble protein after heating vs DMSO (PISA); higher = thermal stabilisation; K562 cells, 10 uM, 30 min; active = over 0.2 and 3.5 SD of the protein, either way, in both replicates (recomputed)
[1] = compound: NC(=O)Nc1cc(-c2cccc(F)c2)sc1C(=O)N[C@H]1CCCNC1
Outline: (§1)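 Soluble protein was quantified by TMTpro 16plex LC-MS/MS after channel sums were equalised. It was obtained as the supernatant after 21,000xg for 90 min from pooled aliquots of K562 cells (2×10^6 cells/mL, 10 μM compound, 30 min) heated for 3 min across 48°C-58°C and extracted in PBS with 0.5% NP-40 at 4°C. Thermal stability values are relative to control samples and come from duplicates. They are given as log2 fold changes.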

By UniProt entry, the sequences of proteins in these tests, tags left out. Where a name states a change or a piece, a line headed by the entry shows the natural chain unless it says otherwise.
UniProt Q96DW6: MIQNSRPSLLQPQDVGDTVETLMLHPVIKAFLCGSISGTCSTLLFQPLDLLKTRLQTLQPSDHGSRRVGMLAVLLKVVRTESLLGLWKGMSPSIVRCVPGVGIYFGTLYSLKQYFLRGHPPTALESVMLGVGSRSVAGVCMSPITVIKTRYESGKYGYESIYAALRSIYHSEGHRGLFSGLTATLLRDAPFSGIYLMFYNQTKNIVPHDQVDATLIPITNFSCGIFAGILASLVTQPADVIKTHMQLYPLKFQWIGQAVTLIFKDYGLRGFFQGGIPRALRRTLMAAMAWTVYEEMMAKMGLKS
UniProt Q8NEW0: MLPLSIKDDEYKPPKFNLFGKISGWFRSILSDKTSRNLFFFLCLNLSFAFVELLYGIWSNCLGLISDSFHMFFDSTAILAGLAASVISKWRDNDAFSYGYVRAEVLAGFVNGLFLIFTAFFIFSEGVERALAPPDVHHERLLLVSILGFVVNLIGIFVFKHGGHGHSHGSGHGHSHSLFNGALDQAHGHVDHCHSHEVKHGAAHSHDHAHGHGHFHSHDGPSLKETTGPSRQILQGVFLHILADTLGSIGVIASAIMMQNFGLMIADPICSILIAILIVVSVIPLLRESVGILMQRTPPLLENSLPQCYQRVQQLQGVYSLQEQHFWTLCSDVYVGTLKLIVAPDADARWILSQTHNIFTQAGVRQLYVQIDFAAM
UniProt Q9UJS0: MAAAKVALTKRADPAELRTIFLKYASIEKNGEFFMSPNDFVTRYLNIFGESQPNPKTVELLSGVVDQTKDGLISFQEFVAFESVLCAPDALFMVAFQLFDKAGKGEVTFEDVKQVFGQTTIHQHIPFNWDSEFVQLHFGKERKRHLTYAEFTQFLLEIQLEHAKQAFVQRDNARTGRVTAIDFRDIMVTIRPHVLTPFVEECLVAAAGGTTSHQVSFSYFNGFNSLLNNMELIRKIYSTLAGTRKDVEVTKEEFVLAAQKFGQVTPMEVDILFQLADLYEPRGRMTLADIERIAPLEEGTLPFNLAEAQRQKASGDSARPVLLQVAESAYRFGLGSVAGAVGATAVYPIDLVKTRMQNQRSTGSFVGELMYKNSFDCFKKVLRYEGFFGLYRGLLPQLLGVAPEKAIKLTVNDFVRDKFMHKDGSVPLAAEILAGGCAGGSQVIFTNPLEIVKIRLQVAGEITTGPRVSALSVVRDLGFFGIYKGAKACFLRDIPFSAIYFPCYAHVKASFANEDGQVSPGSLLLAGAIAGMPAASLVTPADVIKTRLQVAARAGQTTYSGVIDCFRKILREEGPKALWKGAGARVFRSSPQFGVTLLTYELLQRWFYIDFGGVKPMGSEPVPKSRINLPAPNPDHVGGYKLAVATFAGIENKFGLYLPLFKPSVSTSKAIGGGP
UniProt Q9BZJ4: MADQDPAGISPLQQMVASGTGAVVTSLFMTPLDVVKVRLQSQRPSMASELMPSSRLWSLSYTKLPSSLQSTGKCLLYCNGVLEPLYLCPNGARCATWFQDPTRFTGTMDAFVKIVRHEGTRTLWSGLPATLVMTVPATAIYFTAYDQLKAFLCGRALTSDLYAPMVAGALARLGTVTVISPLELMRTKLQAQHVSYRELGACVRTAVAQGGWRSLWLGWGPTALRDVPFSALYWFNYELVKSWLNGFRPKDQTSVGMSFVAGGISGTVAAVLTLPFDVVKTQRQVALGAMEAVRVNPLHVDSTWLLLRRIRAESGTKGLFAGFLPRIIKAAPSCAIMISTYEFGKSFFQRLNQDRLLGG
UniProt Q9NP59: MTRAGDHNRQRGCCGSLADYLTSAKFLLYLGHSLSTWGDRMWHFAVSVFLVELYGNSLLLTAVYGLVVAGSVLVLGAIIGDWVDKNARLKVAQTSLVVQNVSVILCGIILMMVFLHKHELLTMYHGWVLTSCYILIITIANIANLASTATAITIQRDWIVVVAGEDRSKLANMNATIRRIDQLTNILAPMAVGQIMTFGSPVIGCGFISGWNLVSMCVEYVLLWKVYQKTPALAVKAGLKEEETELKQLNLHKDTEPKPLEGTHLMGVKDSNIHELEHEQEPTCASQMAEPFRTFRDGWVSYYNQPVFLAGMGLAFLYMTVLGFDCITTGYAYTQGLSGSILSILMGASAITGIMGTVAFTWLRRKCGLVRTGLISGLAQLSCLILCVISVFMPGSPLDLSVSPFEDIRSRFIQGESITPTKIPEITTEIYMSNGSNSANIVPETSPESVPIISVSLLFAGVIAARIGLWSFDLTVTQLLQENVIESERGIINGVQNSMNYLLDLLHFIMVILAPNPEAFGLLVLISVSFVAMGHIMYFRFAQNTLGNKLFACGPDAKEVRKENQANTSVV
UniProt Q9H2D1: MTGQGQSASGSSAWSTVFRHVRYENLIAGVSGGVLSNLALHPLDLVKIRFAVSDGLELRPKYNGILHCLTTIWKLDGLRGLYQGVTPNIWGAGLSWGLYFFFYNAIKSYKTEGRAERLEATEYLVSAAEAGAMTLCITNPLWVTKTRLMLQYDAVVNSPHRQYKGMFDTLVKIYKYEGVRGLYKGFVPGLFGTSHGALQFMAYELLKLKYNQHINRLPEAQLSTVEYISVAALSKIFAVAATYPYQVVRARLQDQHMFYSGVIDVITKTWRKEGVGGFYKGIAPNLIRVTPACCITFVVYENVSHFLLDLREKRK
UniProt O43772: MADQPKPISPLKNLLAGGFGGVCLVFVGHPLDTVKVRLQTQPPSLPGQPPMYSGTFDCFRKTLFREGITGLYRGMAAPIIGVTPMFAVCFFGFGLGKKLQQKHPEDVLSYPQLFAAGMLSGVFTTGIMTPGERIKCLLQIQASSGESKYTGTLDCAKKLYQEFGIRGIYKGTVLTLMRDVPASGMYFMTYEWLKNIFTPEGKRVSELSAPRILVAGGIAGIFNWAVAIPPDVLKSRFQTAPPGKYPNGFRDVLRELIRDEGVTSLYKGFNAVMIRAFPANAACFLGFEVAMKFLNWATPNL
UniProt Q6NT16: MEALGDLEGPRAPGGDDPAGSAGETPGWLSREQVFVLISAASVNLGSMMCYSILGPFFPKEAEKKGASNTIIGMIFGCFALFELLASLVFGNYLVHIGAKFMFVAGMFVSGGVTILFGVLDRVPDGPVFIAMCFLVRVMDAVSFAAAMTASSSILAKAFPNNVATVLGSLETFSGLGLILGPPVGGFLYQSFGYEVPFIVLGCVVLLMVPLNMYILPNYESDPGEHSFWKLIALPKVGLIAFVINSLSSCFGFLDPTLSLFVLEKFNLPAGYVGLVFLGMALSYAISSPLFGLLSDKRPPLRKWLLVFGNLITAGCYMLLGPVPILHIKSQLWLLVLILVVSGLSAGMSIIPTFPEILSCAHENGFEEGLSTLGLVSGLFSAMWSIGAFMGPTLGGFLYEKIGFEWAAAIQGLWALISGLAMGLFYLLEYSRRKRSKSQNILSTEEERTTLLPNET
UniProt Q8WUX1, whole entry, looked up: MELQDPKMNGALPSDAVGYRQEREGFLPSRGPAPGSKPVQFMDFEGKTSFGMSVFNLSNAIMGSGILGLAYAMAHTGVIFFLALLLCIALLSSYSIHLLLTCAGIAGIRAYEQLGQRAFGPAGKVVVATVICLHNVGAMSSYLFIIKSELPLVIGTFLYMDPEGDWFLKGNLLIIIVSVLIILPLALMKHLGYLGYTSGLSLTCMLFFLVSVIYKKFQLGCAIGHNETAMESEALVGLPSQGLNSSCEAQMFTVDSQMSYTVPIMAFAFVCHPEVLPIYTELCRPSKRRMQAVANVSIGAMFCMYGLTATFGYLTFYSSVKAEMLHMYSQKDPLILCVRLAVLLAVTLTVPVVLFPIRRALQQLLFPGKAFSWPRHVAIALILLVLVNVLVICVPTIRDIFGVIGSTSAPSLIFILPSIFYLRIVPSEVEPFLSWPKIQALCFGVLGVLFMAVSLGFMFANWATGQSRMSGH
UniProt Q9UHW9: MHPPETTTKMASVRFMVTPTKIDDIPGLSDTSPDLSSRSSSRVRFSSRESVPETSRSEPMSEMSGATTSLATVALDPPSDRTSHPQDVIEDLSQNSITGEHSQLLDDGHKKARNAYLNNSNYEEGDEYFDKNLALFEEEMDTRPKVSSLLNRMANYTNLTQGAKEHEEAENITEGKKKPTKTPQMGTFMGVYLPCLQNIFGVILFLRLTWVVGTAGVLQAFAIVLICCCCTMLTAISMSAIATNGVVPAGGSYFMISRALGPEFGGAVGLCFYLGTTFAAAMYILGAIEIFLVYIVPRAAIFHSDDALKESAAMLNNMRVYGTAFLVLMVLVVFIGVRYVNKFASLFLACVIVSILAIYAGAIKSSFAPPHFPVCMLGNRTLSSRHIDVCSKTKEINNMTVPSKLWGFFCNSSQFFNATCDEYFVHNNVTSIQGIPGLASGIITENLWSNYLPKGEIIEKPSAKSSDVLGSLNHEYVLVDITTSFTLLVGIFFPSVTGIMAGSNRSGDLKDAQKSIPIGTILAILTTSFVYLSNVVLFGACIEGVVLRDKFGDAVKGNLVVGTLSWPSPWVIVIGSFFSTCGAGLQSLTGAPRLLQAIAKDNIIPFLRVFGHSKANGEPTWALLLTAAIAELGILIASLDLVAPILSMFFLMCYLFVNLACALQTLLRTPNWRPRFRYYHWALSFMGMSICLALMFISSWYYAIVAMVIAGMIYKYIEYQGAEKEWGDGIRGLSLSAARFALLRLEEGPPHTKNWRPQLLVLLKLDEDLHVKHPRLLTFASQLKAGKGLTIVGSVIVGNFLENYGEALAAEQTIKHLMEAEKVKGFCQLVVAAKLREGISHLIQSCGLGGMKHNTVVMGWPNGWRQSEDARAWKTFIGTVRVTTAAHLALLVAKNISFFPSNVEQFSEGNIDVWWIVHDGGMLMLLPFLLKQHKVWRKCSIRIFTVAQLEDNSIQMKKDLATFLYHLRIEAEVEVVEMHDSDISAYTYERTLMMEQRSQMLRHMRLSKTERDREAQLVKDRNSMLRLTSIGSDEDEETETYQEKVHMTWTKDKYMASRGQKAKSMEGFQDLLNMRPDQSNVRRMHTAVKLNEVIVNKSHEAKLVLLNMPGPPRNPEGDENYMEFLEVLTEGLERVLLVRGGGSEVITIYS
UniProt P31641: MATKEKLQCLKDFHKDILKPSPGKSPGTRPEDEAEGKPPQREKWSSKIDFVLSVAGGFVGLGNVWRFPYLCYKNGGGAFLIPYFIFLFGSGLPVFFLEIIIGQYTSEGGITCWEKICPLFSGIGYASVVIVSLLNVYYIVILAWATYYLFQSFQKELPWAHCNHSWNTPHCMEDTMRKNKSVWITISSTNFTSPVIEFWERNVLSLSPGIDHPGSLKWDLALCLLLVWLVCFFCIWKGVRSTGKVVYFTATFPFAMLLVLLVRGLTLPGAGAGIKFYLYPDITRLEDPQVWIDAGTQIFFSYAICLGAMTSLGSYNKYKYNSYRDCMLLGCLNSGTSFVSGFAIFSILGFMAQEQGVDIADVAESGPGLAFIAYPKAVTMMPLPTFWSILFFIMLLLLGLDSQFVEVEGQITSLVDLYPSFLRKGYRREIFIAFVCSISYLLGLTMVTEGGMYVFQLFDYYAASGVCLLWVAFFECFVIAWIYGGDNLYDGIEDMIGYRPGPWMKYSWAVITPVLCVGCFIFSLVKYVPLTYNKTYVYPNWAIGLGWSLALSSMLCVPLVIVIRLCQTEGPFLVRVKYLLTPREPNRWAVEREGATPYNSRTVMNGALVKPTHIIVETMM
UniProt O75387: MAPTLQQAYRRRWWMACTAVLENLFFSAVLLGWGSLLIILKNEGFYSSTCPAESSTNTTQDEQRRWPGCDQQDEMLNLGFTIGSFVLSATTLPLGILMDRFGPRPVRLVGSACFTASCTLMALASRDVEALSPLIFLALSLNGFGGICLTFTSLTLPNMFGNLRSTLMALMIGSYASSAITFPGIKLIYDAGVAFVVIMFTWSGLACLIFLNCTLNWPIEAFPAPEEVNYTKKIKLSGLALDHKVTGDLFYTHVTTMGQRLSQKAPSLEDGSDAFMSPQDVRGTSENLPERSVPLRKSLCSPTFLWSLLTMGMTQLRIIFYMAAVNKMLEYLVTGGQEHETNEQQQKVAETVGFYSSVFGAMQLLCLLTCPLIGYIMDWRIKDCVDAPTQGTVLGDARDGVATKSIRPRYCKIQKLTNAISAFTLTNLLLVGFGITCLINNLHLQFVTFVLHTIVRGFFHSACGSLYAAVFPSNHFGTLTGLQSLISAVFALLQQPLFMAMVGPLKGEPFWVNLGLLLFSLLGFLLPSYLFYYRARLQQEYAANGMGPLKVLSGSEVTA
UniProt Q9BSK2: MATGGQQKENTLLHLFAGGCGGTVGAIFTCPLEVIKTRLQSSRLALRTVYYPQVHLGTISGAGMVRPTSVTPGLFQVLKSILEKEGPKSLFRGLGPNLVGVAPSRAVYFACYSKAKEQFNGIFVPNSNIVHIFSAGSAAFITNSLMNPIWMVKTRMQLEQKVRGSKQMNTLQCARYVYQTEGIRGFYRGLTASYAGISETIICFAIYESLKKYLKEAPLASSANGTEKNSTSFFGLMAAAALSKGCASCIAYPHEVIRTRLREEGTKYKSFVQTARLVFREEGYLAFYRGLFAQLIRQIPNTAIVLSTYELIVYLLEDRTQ

[2] = compound: NC(=O)c1cnc(N[C@@H]2CCCC[C@@H]2N)nc1Nc1cccc(-n2nccn2)c1
Outline: as §1

[3] = compound: NC1(c2ccc(-c3nc4ccn5c(=O)[nH]nc5c4cc3-c3ccccc3)cc2)CCC1
Outline: as §1

[4] = compound: NCC(=O)Nc1ccc(-n2nc(C(F)(F)F)cc2-c2ccc3c(ccc4ccccc43)c2)cc1
Outline: as §1

entinostat = compound: Nc1ccccc1NC(=O)c1ccc(CNC(=O)OCc2cccnc2)cc1 [entinostat]
Outline: as §1

vorinostat = compound: O=C(CCCCCCC(=O)Nc1ccccc1)NO [vorinostat]
Outline: as §1

citarinostat = compound: O=C(CCCCCCNC(=O)c1cnc(N(c2ccccc2)c2ccccc2Cl)nc1)NO [citarinostat]
Outline: as §1

silmitasertib = compound: O=C(O)c1ccc2c(c1)nc(Nc1cccc(Cl)c1)c1ccncc12 [silmitasertib]
Outline: as §1

[5] = compound: O=C1NC(=O)C(c2cnc3ccccn23)=C1c1cn2c3c(cc(F)cc13)CN(C(=O)N1CCCCC1)CC2
Outline: as §1

[6] = compound: c1cc(OCCN2CCCCC2)cc(-c2n[nH]c3ccc(-c4nnc[nH]4)cc23)c1
Outline: as §1

entospletinib = compound: c1cn2cc(-c3ccc4cn[nH]c4c3)nc(Nc3ccc(N4CCOCC4)cc3)c2n1 [entospletinib]
Outline: as §1

| Target | log2 fold change [1] | log2 fold change [2] | log2 fold change [3] | log2 fold change [4] | log2 fold change (entinostat) | log2 fold change (vorinostat) | log2 fold change (citarinostat) | log2 fold change (silmitasertib) | log2 fold change [5] | log2 fold change [6] | log2 fold change (entospletinib) |
| --- | --- | --- | --- | --- | --- | --- | --- | --- | --- | --- | --- |
| SLC44A2 isoform 2 (UniProt Q8IWA5) | inactive: -0.086 | inactive: 0.168 | inactive: 0.128 | inactive: 0.05 | inactive: -0.06 | inactive: -0.006 | inactive: 0.091 | inactive: -0.071 | inactive: -0.075 | inactive: -0.289 |  |
| SLC30A9 (UniProt Q6PML9) | inactive: -0.125 | inactive: 0.002 | inactive: -0.086 | inactive: -0.048 | inactive: 0.021 | inactive: 0.004 | inactive: 0.038 | inactive: 0.049 | inactive: -0.061 | inactive: -0.088 | inactive: -0.029 |
| SLC12A2 (UniProt P55011) | inactive: -0.018 | inactive: 0.026 | inactive: 0.047 | inactive: 0.004 | inactive: -0.009 | inactive: -0.001 | inactive: 0.032 | inactive: -0.001 | inactive: -0.032 | inactive: -0.022 | inactive: -0.04 |
| SLC25A38 (UniProt Q96DW6) | inactive: 0.035 | inactive: -0.068 | inactive: -0.21 | inactive: 0.06 | inactive: -0.049 | inactive: -0.096 | inactive: 0.02 | inactive: 0.069 | inactive: -0.022 | inactive: -0.028 |  |
| SLC4A2 (UniProt P04920) | inactive: -0.048 | inactive: -0.055 | active: -0.204 | inactive: -0.123 | inactive: 0.028 | inactive: 0.023 | inactive: -0.072 | inactive: 0.019 | inactive: 0.016 | inactive: -0.084 |  |
| SLC30A7 (UniProt Q8NEW0) | inactive: -0.035 | inactive: 0.013 | inactive: -0.276 | inactive: -0.178 | inactive: 0.024 | inactive: -0.024 | inactive: -0.028 | inactive: 0.039 | inactive: 0.025 | inactive: -0.032 |  |
| SLC25A13 isoform 2 (UniProt Q9UJS0) | inactive: -0.008 | inactive: -0.048 | inactive: -0.024 | inactive: -0.012 | inactive: 0.001 | inactive: -0.011 | inactive: 0.033 | inactive: -0.027 | inactive: -0.015 | inactive: -0.03 | inactive: 0.029 |
| SLC25A39 (UniProt Q9BZJ4) | inactive: 0.059 | inactive: -0.183 | inactive: -0.345 | inactive: -0.105 | inactive: 0.061 | inactive: -0.05 | inactive: -0.015 | inactive: 0.023 | inactive: 0.073 | inactive: 0.223 |  |
| SLC40A1 (UniProt Q9NP59) | inactive: -0.094 | inactive: 0.048 | inactive: 0.044 | inactive: -0.147 | inactive: -0.018 | inactive: -0.088 | inactive: 0.011 | inactive: 0.111 | inactive: -0.099 | inactive: -0.097 | inactive: 0.091 |
| SLC25A32 (UniProt Q9H2D1) | inactive: -0.012 | inactive: -0.01 | inactive: -0.009 | inactive: 0.002 | inactive: -0.02 | inactive: -0.037 | inactive: -0.003 | inactive: 0.062 | inactive: -0.061 | inactive: -0.072 | inactive: -0.029 |
| SLC25A20 (UniProt O43772) | inactive: -0.033 | inactive: -0.029 | inactive: -0.008 | inactive: -0.01 | inactive: -0.032 | inactive: -0.026 | inactive: 0.037 | inactive: 0.03 | inactive: 0.001 | inactive: -0.008 | inactive: -0.033 |
| SLC27A2 (UniProt O14975) | inactive: -0.068 | inactive: -0.091 | inactive: 0.007 | inactive: -0.047 | inactive: -0.023 | inactive: -0.053 | inactive: 0.059 | inactive: 0.083 | inactive: 0.247 | inactive: -0.035 |  |
| SLC18B1 (UniProt Q6NT16) | inactive: -0.003 | inactive: 0.022 | inactive: -0.093 | inactive: -0.025 | inactive: 0.038 | inactive: -0.162 | inactive: 0.019 | inactive: 0.076 | inactive: 0.044 | inactive: -0.044 |  |
| SLC25A36 (UniProt Q96CQ1) | inactive: 0.131 | inactive: 0.035 | inactive: 0.015 | inactive: -0.123 | inactive: 0.036 | inactive: 0.003 | inactive: 0.063 | inactive: 0.106 | inactive: 0.027 | inactive: 0.028 |  |
| SLC25A19 (UniProt Q9HC21) | inactive: -0.006 | inactive: 0.012 | inactive: 0.003 | inactive: -0.021 | inactive: -0.011 | inactive: 0.01 | inactive: 0.009 | inactive: 0.016 | inactive: -0.03 | inactive: -0.01 | inactive: 0.037 |
| SLC1A5 (UniProt Q15758) | inactive: -0.057 | inactive: 0.117 | inactive: 0.155 | inactive: 0.03 | inactive: -0.041 | inactive: -0.039 | inactive: -0.003 | inactive: -0.016 | inactive: -0.001 | inactive: -0.03 |  |
| SLC38A5 (UniProt Q8WUX1) | inactive: -0.1 | inactive: 0.004 | inactive: 0.125 | inactive: 0.015 | inactive: -0.026 | inactive: 0.044 | inactive: 0.023 | inactive: -0.009 | inactive: 0.028 | inactive: -0.055 | inactive: 0.014 |
| SLC12A6 isoform 2 (UniProt Q9UHW9) | inactive: -0.025 | inactive: 0.034 | inactive: -0.087 | inactive: -0.017 | inactive: 0.006 | inactive: 0.063 | inactive: 0.053 | inactive: -0.011 | inactive: 0.011 | inactive: -0.08 | inactive: 0.013 |
| SLC38A1 (UniProt Q9H2H9) | inactive: -0.06 | inactive: 0.029 | inactive: 0.052 | inactive: 0.007 | inactive: -0.033 | inactive: -0.01 | inactive: 0.047 | inactive: 0.061 | inactive: -0.022 | inactive: -0.103 | inactive: -0.016 |
| SLC6A6 (UniProt P31641) | inactive: -0.099 | inactive: 0.03 | inactive: 0.024 | inactive: -0.19 | inactive: -0.031 | inactive: -0.059 | inactive: 0.065 | inactive: 0.039 | inactive: 0.086 | active: 0.269 |  |
| SLC43A1 (UniProt O75387) | inactive: 0.002 | inactive: 0.058 | inactive: 0.025 | inactive: -0.093 | inactive: -0.086 | inactive: -0.067 | inactive: 0.016 | inactive: -0.014 | inactive: 0.005 | inactive: -0.014 | inactive: 0.056 |
| SLC25A33 (UniProt Q9BSK2) | inactive: 0.039 | inactive: 0.027 | inactive: 0.011 | inactive: -0.026 | inactive: 0.03 | inactive: -0.044 | inactive: -0.019 | inactive: -0.004 | inactive: -0.006 | inactive: -0.057 | inactive: -0.041 |
| SLC25A42 (UniProt Q86VD7) | inactive: 0.121 | inactive: 0.021 | inactive: -0.015 | inactive: 0.05 | inactive: -0.027 | inactive: -0.102 | inactive: -0.015 | inactive: -0.033 | inactive: -0.034 | inactive: -0.046 |  |
| SLC12A4 (UniProt Q9UP95) | inactive: 0.024 | inactive: 0.067 | inactive: -0.126 | inactive: 0.013 | inactive: 0.014 | inactive: -0.001 | inactive: 0.031 | inactive: 0 | inactive: -0.032 | inactive: -0.036 | inactive: -0.006 |
| SLC25A46 (UniProt Q96AG3) | inactive: -0.023 | inactive: -0.032 | inactive: 0.023 | inactive: -0.014 | inactive: -0.074 | inactive: 0.122 | inactive: -0.03 | inactive: 0.018 | inactive: -0.073 | inactive: -0.012 | inactive: 0.006 |
| SLC2A1 (UniProt P11166) | inactive: -0.107 | inactive: 0.02 | inactive: 0.081 | inactive: 0.012 | inactive: -0.054 | inactive: -0.041 | inactive: -0.015 | inactive: -0.027 | inactive: -0.046 | inactive: -0.046 | inactive: -0.02 |
| SLC4A1 (UniProt P02730) | inactive: -0.035 | inactive: 0.149 | inactive: -0.03 | inactive: 0.032 | inactive: -0.015 | inactive: 0 | inactive: 0.017 | inactive: -0.002 | inactive: 0.042 | inactive: -0.087 | inactive: 0.022 |
| SLC25A21 (UniProt Q9BQT8) | inactive: -0.028 | inactive: -0.042 | inactive: -0.025 | inactive: -0.083 | inactive: -0.032 | inactive: -0.038 | inactive: -0.015 | inactive: 0.033 | inactive: -0.019 | inactive: -0.045 | inactive: 0.024 |

Reprinted at random: 2 records from the list, in no set order.

| Target | log2 fold change [1] | log2 fold change [2] | log2 fold change [3] | log2 fold change [4] | log2 fold change (entinostat) | log2 fold change (vorinostat) | log2 fold change (citarinostat) | log2 fold change (silmitasertib) | log2 fold change [5] | log2 fold change [6] | log2 fold change (entospletinib) |
| --- | --- | --- | --- | --- | --- | --- | --- | --- | --- | --- | --- |
| SLC25A19 (UniProt Q9HC21) | inactive: -0.006 | inactive: 0.012 | inactive: 0.003 | inactive: -0.021 | inactive: -0.011 | inactive: 0.01 | inactive: 0.009 | inactive: 0.016 | inactive: -0.03 | inactive: -0.01 | inactive: 0.037 |
| SLC43A1 (UniProt O75387) | inactive: 0.002 | inactive: 0.058 | inactive: 0.025 | inactive: -0.093 | inactive: -0.086 | inactive: -0.067 | inactive: 0.016 | inactive: -0.014 | inactive: 0.005 | inactive: -0.014 | inactive: 0.056 |
